# The list shows a part of the results.
# Molecular target: T1, OsSMF1 (Oryza sativa, UniProt Q6ZLB0 1-436)
# T1 sequence: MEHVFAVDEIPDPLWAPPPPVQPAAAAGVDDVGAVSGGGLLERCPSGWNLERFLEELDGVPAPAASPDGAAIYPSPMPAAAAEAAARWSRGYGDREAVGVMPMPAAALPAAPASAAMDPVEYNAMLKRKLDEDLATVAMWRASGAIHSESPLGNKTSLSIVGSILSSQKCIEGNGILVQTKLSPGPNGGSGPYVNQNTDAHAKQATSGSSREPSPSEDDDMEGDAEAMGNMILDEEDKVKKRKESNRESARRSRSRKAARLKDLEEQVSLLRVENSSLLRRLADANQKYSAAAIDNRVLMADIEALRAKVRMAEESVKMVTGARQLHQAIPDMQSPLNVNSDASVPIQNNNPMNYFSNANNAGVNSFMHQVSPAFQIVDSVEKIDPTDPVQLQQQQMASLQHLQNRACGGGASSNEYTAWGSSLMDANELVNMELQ
# Assay: protein-binding microarray (RPBM); PBS, 2% BSA, 51.3 ng/ul salmon testes DNA, 50 uM zinc acetate, 200 nM TF, 25 C, 1 h; high values mean tight binding
# Settings: protein: recombinant; tags: N-terminal polyhistidine and DsRed monomer fusion (pET32a); chain copies: 2; label: CyDye5-dUTP incorporated in the synthesized complementary strand; 3' TTTTT single-stranded linker to array surface; dsDNA, one strand shown
# Outline: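 Transcription factors were made in E. coli BL21-CodonPlus as N-terminal fusions to a polyhistidine tag and DsRed, then purified on Ni–NTA. After primer extension with Cy5-dUTP and blocking with 2% BSA, a custom Agilent array was exposed for 1 h at 25 °C to 200 nM protein in PBS, 2% BSA, salmon testes DNA and 50 µM zinc acetate. Washed arrays were scanned on an Axon 4000B, and the binding signal is per-feature fluorescence intensity in arbitrary units.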
row,Sequence,binding signal
1,GGTTGCTCCTCGTGTTGGCGTGGTCGTCGTCGTCTTGGTCCGGAGTCACCTAGTGCAG,4000 fluorescence intensity (a.u.)
2,TCGGCCCTGGTCACGGACGGATGACGCGCGCCCAGTCCCCCGGAGTCACCTAGTGCAG,4460 fluorescence intensity (a.u.)
3,TTCAACGAGGGGACCGTGGTGACTTCGACAATCTCAACTCCGGAGTCACCTAGTGCAG,3360 fluorescence intensity (a.u.)
4,GATCGACGGCGACGCCCCTGGAAGGAGCGGAATAGACCACCGGAGTCACCTAGTGCAG,46700 fluorescence intensity (a.u.)
5,CCGTCCACCGCCGCTCCTCCTGCCTCCGGCCATGCGCTCGCGGAGTCACCTAGTGCAG,3420 fluorescence intensity (a.u.)
6,TGAAAATTTCAATCCTTTCTTGTCAGCATAGTTCTTTCTGCGGAGTCACCTAGTGCAG,4880 fluorescence intensity (a.u.)
7,CGCCGCTGCATAGTGCCGCCATCAATATGGGCTTGTTTGGCGGAGTCACCTAGTGCAG,3230 fluorescence intensity (a.u.)
8,CTAATTAAACAAACACGCGAAATACACGTATATCAAGAAACGGAGTCACCTAGTGCAG,35200 fluorescence intensity (a.u.)
9,TTTCGTAGCCTTAAAATTACCTCGTCACTGTCTTGTACTCCGGAGTCACCTAGTGCAG,4770 fluorescence intensity (a.u.)
10,TTATGGGCTCTTGTAAGGAAGAACTGTTCTCTTATCCTAACGGAGTCACCTAGTGCAG,24800 fluorescence intensity (a.u.)
11,ACATCTCCATCGTTCTCCCCTGCGCCGGTGACGGCGCCGCCGGAGTCACCTAGTGCAG,3360 fluorescence intensity (a.u.)
12,TCGTTGCCTCGTAACAACCGTCAAAATCAAATCGAGTCCACGGAGTCACCTAGTGCAG,24900 fluorescence intensity (a.u.)
13,TGCAAATAAATTCTCGTTTGGACCAAGTATCTGACGTATTCGGAGTCACCTAGTGCAG,4510 fluorescence intensity (a.u.)
14,ATGGAGACCTCGCCACCTCACCGCAAACCACGCCTGCCGCCGGAGTCACCTAGTGCAG,7040 fluorescence intensity (a.u.)
15,TCCATGCTGGTTTTAGTCCTACGTGACAATACAGTCAGCACGGAGTCACCTAGTGCAG,5640 fluorescence intensity (a.u.)
16,GATGTGTGTTGTCATCAATATTTTGTACCGCACGTCGTATCGGAGTCACCTAGTGCAG,8360 fluorescence intensity (a.u.)
17,TTGTAGATTTGTAGATGTTACTCTTACATGACTCCTTCCTCGGAGTCACCTAGTGCAG,3480 fluorescence intensity (a.u.)
18,CAAATGCAGACCGGCCGTGGCGTGGCAGGCAGCCATCACACGGAGTCACCTAGTGCAG,4380 fluorescence intensity (a.u.)
19,TCTTCAATATCAGATTCCTCGTCCTCTGACTCATCATGTTCGGAGTCACCTAGTGCAG,17200 fluorescence intensity (a.u.)
20,GGGGTGCACATGACACGACTGCTTCCGCGTTTCTTCTCGGCGGAGTCACCTAGTGCAG,6350 fluorescence intensity (a.u.)
21,TGATCTCTCTCTGTGATTGCGTGGTTATTTCTGGTGCCTTCGGAGTCACCTAGTGCAG,3540 fluorescence intensity (a.u.)
22,ATGCGAACTAAACACATCCTTGTTGCAATTAAGATGTCATCGGAGTCACCTAGTGCAG,19900 fluorescence intensity (a.u.)
23,TCTTGCAATGCATAGCCTGCAACAGTCACCCCATCCCATGCGGAGTCACCTAGTGCAG,13300 fluorescence intensity (a.u.)
24,CCAAACCGAAACCCACCTCCAGCGGGCCCCACCTGTCATCCGGAGTCACCTAGTGCAG,4180 fluorescence intensity (a.u.)
25,GCTGTGTGATCGTCATCAATTGATCAGCAGAGTACCGTGGCGGAGTCACCTAGTGCAG,3380 fluorescence intensity (a.u.)
26,CGAACGGCCGGCTGCCACGTCATTTTCGCCGCCCTCTGGGCGGAGTCACCTAGTGCAG,15600 fluorescence intensity (a.u.)
27,TATTAATATTGTTTGAAAATGAGTCACCATACTCGTTCTACGGAGTCACCTAGTGCAG,7550 fluorescence intensity (a.u.)

row,Sequence,binding signal
1,GGTGCTCTACCCTGGCCTCTCTGTCAGCCACTTCCTCCCGCGGAGTCACCTAGTGCAG,3750 fluorescence intensity (a.u.)
2,ACATCATTGCTACTAAGGATAATGGCCTCGGTTAATAAACCGGAGTCACCTAGTGCAG,6240 fluorescence intensity (a.u.)
3,AATGATAAGCTCTACTACTTGATACACTCAAGACTCTGATCGGAGTCACCTAGTGCAG,3170 fluorescence intensity (a.u.)
4,ATGGCTGAATCTGTACAAGTGTCGTGAGGTGGAAAATTTCCGGAGTCACCTAGTGCAG,4400 fluorescence intensity (a.u.)
5,AATGATCAATGCATGATTAATAACTTCTATTGTGTAAACGCGGAGTCACCTAGTGCAG,3340 fluorescence intensity (a.u.)
6,TTGCCGATATTTTGGTACGTCATCCGTTTATGAGTCGGTGCGGAGTCACCTAGTGCAG,8380 fluorescence intensity (a.u.)
7,ACTAGATTTATCGTAGAACCATATGTTTAAGATAGACTATCGGAGTCACCTAGTGCAG,28500 fluorescence intensity (a.u.)
8,AAATCGGCGCACCACCACCGCCCCGCCGTCCACGAATCGACGGAGTCACCTAGTGCAG,3170 fluorescence intensity (a.u.)
9,GTCAAATGTTGAACGTGAATAGTGCAAAACTACAGTTATTCGGAGTCACCTAGTGCAG,29200 fluorescence intensity (a.u.)
10,GTCGGCAACGGCAAGGCGCTCTTCTACTGGTTCTTCGAGGCGGAGTCACCTAGTGCAG,3970 fluorescence intensity (a.u.)
11,GGCCTACTATACTTGCCAAGCGAGAGAGAGACCCCAGCACCGGAGTCACCTAGTGCAG,34400 fluorescence intensity (a.u.)
12,CTTCTTCTTCCTCGCTTCCTTCCTCCACCTCCACGCGGCGCGGAGTCACCTAGTGCAG,5530 fluorescence intensity (a.u.)
13,GTCTGGTTTGCCAACCGTGATCATCCAGTTGGAGAGAATGCGGAGTCACCTAGTGCAG,3770 fluorescence intensity (a.u.)
14,CGTGTACGCAACCTCCGCTTCATCACGCCCGTTCGTCGCGCGGAGTCACCTAGTGCAG,3440 fluorescence intensity (a.u.)
15,CGTTTCAATCTGTTGTGGTGCTTGCATGCACAAGCCACCACGGAGTCACCTAGTGCAG,3190 fluorescence intensity (a.u.)
16,GTGTGTCGATGTTCGTTGTCACGTCTACGTGGACACATGACGGAGTCACCTAGTGCAG,9960 fluorescence intensity (a.u.)
17,CAAGAAGTTCTGACTGGATCAAAACCCAGAAGGTGTTCCCCGGAGTCACCTAGTGCAG,4730 fluorescence intensity (a.u.)
18,GTCCGAATACCCCATATGACACCCTATATAATACCTGACGCGGAGTCACCTAGTGCAG,3530 fluorescence intensity (a.u.)
19,TACAGGAACAGCAATAGCAGTAGTAAATACTAGCTCAGGCCGGAGTCACCTAGTGCAG,3380 fluorescence intensity (a.u.)
20,CTTTAATATGTGGACTCATGATTCTTACGTGTCTGTGACACGGAGTCACCTAGTGCAG,31500 fluorescence intensity (a.u.)
21,ATGCCATGTCCTCGTCCTAGGTGAAACAGCCACATCATCTCGGAGTCACCTAGTGCAG,6320 fluorescence intensity (a.u.)
22,ACAAGCGCGATATAGACCTCGACCTGTCTCTAGTGACTTGCGGAGTCACCTAGTGCAG,3180 fluorescence intensity (a.u.)
23,AACCCAAGTTGCCTGGCGAAACCGCGAAACGCCGCGGATGCGGAGTCACCTAGTGCAG,3210 fluorescence intensity (a.u.)
24,GCCACCGCCGCGGCCGCGCCACCTCACCGGCGGCGCCGGTCGGAGTCACCTAGTGCAG,4880 fluorescence intensity (a.u.)
25,TGGGGCCACCACCACAAGCCCACGCAGGCAGGTGGGCCCCCGGAGTCACCTAGTGCAG,3280 fluorescence intensity (a.u.)
26,TTAAATTTTAGATACTCGTGGCATGCTTTTCAAACTGCTACGGAGTCACCTAGTGCAG,8480 fluorescence intensity (a.u.)
27,ACCTTTTGCACTATACACAGCCACGTGGCTTGCCAGCGTGCGGAGTCACCTAGTGCAG,24700 fluorescence intensity (a.u.)

# An excerpt of these results, bar-delimited.
row | Sequence | binding signal
5 | CCGTCCACCGCCGCTCCTCCTGCCTCCGGCCATGCGCTCGCGGAGTCACCTAGTGCAG | 3420 fluorescence intensity (a.u.)
6 | TGAAAATTTCAATCCTTTCTTGTCAGCATAGTTCTTTCTGCGGAGTCACCTAGTGCAG | 4880 fluorescence intensity (a.u.)
